The series in a line: Assay of 1,5-AG by colorimetry (WST-1, HITACHI 7020). Particulars: 450 nm / 570 nm.

B1: Ver. 7.1: thermostable 1,5-AG dehydrogenase, SEQ ID NO: 23; Ver. 7.0 plus G4A (protein)
chain: MEFAGQPDIVIIGTGIGGASIAAGLSASGADILILETGESLPDRPENRDQHAIFQRGFFRPKEFWYETDGTPFNPGNYYNVGGNSKFYGAVLMRYRREDFEELAHLEGVSPAWPFAYDELEPWYCKAEELFQVRGELGDDPTEPYHSKPYSYPAIRDESPIADMRARLKKAGLHPASLPLGVDIERWLAKAKTPWDAHPNSNDGKMDAETCPLALALKHPNVGLETSARVTKLEAGPDGKTIVAVHYVKNGEALVLRPKLVILSAGAVQSAALLLRSGLANRSDQVGRNFMNHNASAVIGFDPRYRNDSVYQKTFGFNDYYLSDGAGGPPLGNVQLLGRVSGAILKSYMRQVPEWFLNRIARHTIDFYAMSEDLPSPESRVSVDGDRIILHWVRSNWKAHLMLVDKLKSALRAAGFPVVLSRAFDRRTPSHQCGTVRIGDNPATAPLDPYCRAYDHPNLYVVDASFLPTSAAVNPALTIAAQALRVADHLNREVLA
modifications: Mutated 1,5-anhydroglucitol dehydrogenase gene
notes: Ver; 7.0 plus G4A
As to B1, the Increase in absorbance is on record as 0.0025 (standard solution 0 μg/mL 1,5-AG in saline) and 0.146 (standard solution 50 μg/mL 1,5-AG in saline).

Source of the values: US8574882B2, “Thermostable 1,5-anhydroglucitol dehydrogenase, and method for measurement of 1,5-anhydroglucitol by using the same” (Nippon Kayaku Kabushiki Kaisha, priority 2008, dated 2013).
